Results from the supplement of paper PMC12889115.
The list shows a part of the results. Values are raw readings; no control value is given beside them.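 Primary screen: polymyxin B was added at a level permeabilizing Salmonella outer membranes while sparing inner membranes. DMSO wells, both with and without polymyxin B, established maximum growth. Plate-to-plate variation meant each plate was ranked on its own, and the lowest-OD600 compounds were selected as hits.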

Tested on: Salmonella enterica serovar Typhimurium SL1344
Test: bacterial growth OD600 after 18 h with compound and polymyxin B; higher = more bacterial growth (less inhibition)
Conditions: 50 µM, Mueller-Hinton broth

Structure (SMILES)	bacterial growth OD600 (polymyxin B 1 µg/mL)	bacterial growth OD600 (polymyxin B 0.75 µg/mL)
O=C(NCCN1CCOCC1)c1csc2nc(-c3ccccc3)cn12	1.06	
Cc1cccc(CN2CCCC(C(=O)Nc3ccccc3Oc3cccnc3)C2)c1 (stereo unspecified)	0.663	
COc1ccc(CN2C[C@@H]3C[C@@H](c4ccccc4)N4CCC[C@@]34C2=O)cc1		0.807
COc1cc(C)ccc1OCc1nc(C(=O)N(C)Cc2ccc(C)cc2)co1		0.292
CCC(COC)NC(=O)c1cc(Cn2c(C)nc3ccccc32)on1 (stereo unspecified)	1.14	
Cc1ccc(CNc2nc(CN3CCSCC3)nc3ccccc23)cc1		0.97
CN(CC1CCCN(CCc2cccc(C(F)(F)F)c2)C1)C(=O)Cc1cccnc1 (stereo unspecified)	0.803	
O=C(NCCN1Cc2ccccc2OC(c2ccccc2)C1)C1=CCCCC1 (stereo unspecified)		0.008
Cc1occc1C(=O)NC1CC(C)(C)Cc2nc(N3CCOCC3)ncc21 (stereo unspecified)		0.815
CN(CCC1CCOCC1)C(=O)c1csc2nc(-c3ccc(F)cc3)cn12		0.861
Cc1c(C(=O)N(C)CCCCN2CCOCC2)oc2c(F)cccc12	1.15	
CCOC(=O)CNC(=O)N1CCCC(Nc2cccc(F)c2)C1 (stereo unspecified)	0.902	
Cc1ccccc1N1CCN(c2ncccc2CNC(=O)C2CC=CCC2)CC1 (stereo unspecified)	0.362	
CSc1ncc(CN2CCC(CCC(=O)NCc3cccnc3)CC2)cn1	0.949	
COc1ccc(Cc2nc3ccc(C(=O)NCC4CCCO4)cc3o2)cc1 (stereo unspecified)		0.665
OCCC1CN(Cc2c(F)ccc(F)c2F)CCN1Cc1ccccc1F (stereo unspecified)	1.16	
COc1ccc(CC2(CCC(=O)N3CCCC(COc4ccc(C)cc4)C3)CCC(=O)N2)cc1OC (stereo unspecified)		0.764
CC(C)N1CCN(CC2(O)CCCN(Cc3ccc(F)cc3)C2=O)CC1 (stereo unspecified)	1.01	
CCCC(=O)NC1CC(C)(C)Cc2c1cnn2-c1ccccc1 (stereo unspecified)		0.688
COc1cccc(CCC(=O)N(CCc2ccccc2)CC2CCCN(C)C2)c1 (stereo unspecified)	0.767	
CC(=O)NCCNC(=O)CC(c1ccccc1)c1ccc(Cl)cc1 (stereo unspecified)	0.896	

2 neighbouring entries out of the list so far, for reference:
Structure (SMILES)	bacterial growth OD600 (polymyxin B 1 µg/mL)	bacterial growth OD600 (polymyxin B 0.75 µg/mL)
O=C(NCCN1CCOCC1)c1csc2nc(-c3ccccc3)cn12	1.06	
Cc1cccc(CN2CCCC(C(=O)Nc3ccccc3Oc3cccnc3)C2)c1 (stereo unspecified)	0.663	
